Test [1] has as its target leptin (human (endogenous in TW06)) (UniProt P41159). The experiment in a line: co-IP; endogenous proteins in TW06 cell lysate; IP with anti-EGFR, anti-leptin or control antibody for 16 h at 4 °C, then Protein A/G for 2 h at 4 °C; three washes with IP lysis buffer; Western blot for the other protein. A general note: Immunoblotting shows a protein as a band on a membrane.
Test [2] concerns the target EGFR (human (endogenous in TW06)) (UniProt P00533). Described as above.

No constants are given. Whether binding was seen depends on the method and setting. Binding seen in cells or lysates may run through a third protein. Some results given as binding are weak or reduced against the parent protein; the word gives no strength.

Regarding “EGFR (from UniProt P00533 25-1210) (receptor)”, the binding result in test [1] is “binds”.

For the substance “leptin (from UniProt P41159 22-167) (ligand)”, in test [2], the binding result is on record as “binds”.

The values above are taken from article PMC9248092.
